# Columns and labels:
# Assay type in all cases: cell-based, human
# MDA-MB-231 cells [1] = test: Cellular uptake of B and Fe by ICP-MS; conditions: for Internalized B: 24 h incubation
# Description: (§1) The cellular uptake of Na[o-FESAN] was measured by ICP-MS in the subcellular cytoplasm and nucleus fractions, after 24 h of exposure to Na[o-FESAN] at 50 µM, which allowed for assessing both B and Fe content. The B-to-Fe ratio of around three found in both cellular compartments aligns with the compound’s stoichiometry, reinforcing its structural integrity and highlighting the importance of nuclear localization for the therapeutic efficacy of both therapies, BNCT and PBFT (Table 1).
# (§2) For neutron irradiation, SKBR-3 and MDA-MB-231 cells were incubated with Na[o-FESAN] at 50 and 100 µM and were irradiated with thermal neutrons at the Triga Mark II nuclear reactor at the University of Pavia. […] Both surviving SKBR-3 and MDA-MB-231 cells that were treated with Na[o-FESAN] […] This clearly indicates the important contribution of neutron capture to induce a long-term cytotoxic effect. Another important point is that the toxic effect was observed using Na[o-FESAN] containing natural B. In fact, the amount of internalized B measured by ICP-MS after 24 h incubation with 50 or 100 µM Na[o-FESAN] contained only 19.9% of the active ^10B isotope. Assuming that in the case of epithelial tumors (with a diameter ranging from 15–20 µm), a density of ca. 10^8 cells for cm^3 is a reasonable number, [76] from the data obtained by ICP-MS analysis, it was possible to calculate the amount of ^10B internalized in cells expressed in ppm (µg/g).
# (§3) SKBR-3 and MDA-MB-231 cells (~10^6 cells/2 mL) were incubated with Na[o-FESAN] 50 µM for 24 h in 6-well plates. The cellular fractions, nucleus and cytosol, were obtained using Igepal® ca-630 (Sigma-Aldrich, Darmstadt, Germany). Briefly, after treatment, cells were washed with PBS and collected by centrifugation. Then, the cells were lysed with buffer containing 50 mM Tris (pH 7.4), 250 mM NaCl, 5 mM EDTA, 50 mM NaF, 1 mM Na3VO4, 0.02% NaN3 and 1% Igepal for 30 min. on ice, with constant vortexing for 10 min. After centrifugation at 400× g for 10 min, 4 °C, the supernatant (cytosol) and the pellet (nucleus) fractions were obtained. The levels of B and Fe in each fraction were measured by a Thermo X-Series Quadrupole ICP-MS (Thermo Scientific, Birmingham, UK) and were expressed as ng of B or Fe/10^6 cells (Table 1).
# SKBR-3 cells = test: Cellular uptake of B and Fe by ICP-MS; conditions: for Internalized B: 24 h incubation
# Description: as §1, §2, §3
# MDA-MB-231 cells [2] = test: Single cell Fe uptake by nuclear microscopy (micro-PIXE); conditions: MDA-MB-231, 50 µM, 24 h
# Description: The concentration of Fe in MDA-MD-231 cells treated with Na[o-FESAN] increased by 1.7-fold in the cytoplasm and by up to 2.2-fold in the nucleus, as compared to the untreated control counterparts (average Fe concentration in the cytoplasm on a dry weight basis: 250 ± 30 µg/g vs. 150 ± 10 µg/g in controls; in the nucleus: 430 ± 90 µg/g vs. 200 ± 30 µg/g in controls).
# The distribution of Fe in single MDA-MB-231 cells (controls and after 24 h incubation with 50 µM Na[o-FESAN]) was assessed by nuclear microscopy imaging performed at the nuclear microprobe setup of the CTN/IST Van de Graaff accelerator [69, 70]. In brief, cells were seeded on silicon nitride membranes (Silson Ltd., Southam, UK). Images of elemental distributions (such as Fe) and morphology (mass density) were created using different techniques simultaneously by scanning a 2.0 MeV proton beam focused to micrometer dimensions over the sample surface. This enables the colocalization of cell features and Fe quantification by PIXE, which is useful for assessing cellular uptake and elemental compartmentalization. The data acquisition, including imaging processing and spectral analysis, was performed using DAQ-3 software (version 3) (Oxford Microbeams Ltd., Bicester, UK).
# [3] = MDA-MB-231, 50 µM, 24 h, ICP-MS, B and Fe in ng/10^6 cells
# [4] = SKBR-3, 50 µM, 24 h, ICP-MS, B and Fe in ng/10^6 cells
substance,measurement,setting,value
"[3,3′-Fe(1,2-C2B9H11)2]^− [Na[o-FESAN]]","B/Fe ratio, Cytoplasm",MDA-MB-231 cells [1]; [3],2.8
same,"B/Fe ratio, Nucleus",MDA-MB-231 cells [1]; [3],2.7
same,Internalized B,"MDA-MB-231 cells [1]; MDA-MB-231, 50 µM",310 ± 87 ng/10^6 Cells
same,Internalized B,"MDA-MB-231 cells [1]; MDA-MB-231, 100 µM",406 ± 113 ng/10^6 Cells
same,"B/Fe ratio, Cytoplasm",SKBR-3 cells; [4],2.8
same,"B/Fe ratio, Nucleus",SKBR-3 cells; [4],2.9
same,Internalized B,"SKBR-3 cells; SKBR-3, 50 µM",303 ± 73 ng/10^6 Cells
same,Internalized B,"SKBR-3 cells; SKBR-3, 100 µM",475 ± 114 ng/10^6 Cells
same,"Average Fe concentration in the cytoplasm, dry weight basis",MDA-MB-231 cells [2],250 ± 30 µg/g
same,"Average Fe concentration in the nucleus, dry weight basis",MDA-MB-231 cells [2],430 ± 90 µg/g
same,Increase of Fe concentration in the cytoplasm vs untreated controls,MDA-MB-231 cells [2],1.7 fold
same,Increase of Fe concentration in the nucleus vs untreated controls,MDA-MB-231 cells [2],up to 2.2 fold
